The whole screen tested about 330,000 compounds, of which about 1,000 (0.3%) were called active. Inconclusive means that the source gave no clear call. Such entries were picked first, then a sample of the others. Calls follow the shape of the dose curve; as a rule, active = well fitted inhibition curve with a large enough effect; inconclusive = small, poorly fitted or top-dose-only effect; inactive = no such curve, though single readings can be large or run the other way; tested in mouse RAW 264.7 cells. Potencies of inconclusive entries are doubtful fits and often do not repeat.
experiment: qHTS for Inhibitors of Cell Surface uPA Generation; conditions: cell surface uPA generation assay; series mostly up to 38.3 µM; also: nearly all actives have a fitted effect of over 55% in size
Method in brief: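 Using RAW 264.7 macrophages, the screen measures whether compounds keep cellular ATP up by preventing uPA-driven LF translocation. Treatment lasted 24 h at 37 C, with a final top concentration of 38.3 uM, and luminescence was the readout.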
Potency is read from the fitted curve at half-maximal effect.

Question: For `O=C(/C=C/c1ccco1)Nc1nnc(-c2ccco2)s1`, which Potency is on record?
Answer: inconclusive: 1 µM [inhibitor, full curve, poor fit]

Question: Which Potency does the source give for `CCOc1ccc2nc(SC3CC(=O)N(c4ccc(OC)cc4OC)C3=O)sc2c1` (configuration not stated) here?
Answer: inconclusive: 11.2 µM [inhibitor, single point]

Question: Which Potency does the source give for `CC1CCN(C(=S)NC(=O)c2ccc(C(C)(C)C)cc2)CC1` here?
Answer: inconclusive: 3.16 µM [inhibitor, partial curve, poor fit]

Question: With `CC(OC(=O)c1ccccc1NCCO)C(=O)NCC(=O)Nc1ccc(F)c(F)c1F` (configuration not stated) as the molecule, how does the Potency read?
Answer: inconclusive: 2.82 µM [inhibitor, single point]

Question: With `O=C(NCc1ccncc1)c1cc(-c2ccc(Cl)cc2)oc1C(F)(F)F` as the molecule, how does the Potency read?
Answer: inconclusive: 7.08 µM [inhibitor, partial curve, poor fit]

Question: For `COc1ccc(-n2nnnc2SCC(=O)c2cccc(OC)c2)cc1`, which Potency is on record?
Answer: inconclusive: 28.2 µM [inhibitor, single point]

Question: For `CCOC(=O)N1CCC(NC(=O)c2ccc3c(c2)N(Cc2ccccc2)CCS3)CC1`, which Potency is on record?
Answer: inconclusive: 11.2 µM [inhibitor, single point]

Question: Which Potency does the source give for `Cn1cc(CCNC(=O)CC2C(=O)NCCN2Cc2cccc(Oc3ccccc3)c2)cn1` (configuration not stated) here?
Answer: inconclusive: 4.47 µM [inhibitor, partial curve, poor fit]

Question: With `CC1CCc2c(sc(NC(=O)C3=COCCO3)c2C(N)=O)C1` (configuration not stated) as the molecule, how does the Potency read?
Answer: active: 7.94 µM

Question: For `Cc1cc(Cl)c2oc(C(=O)N(C)Cc3cc(C)[nH]n3)c(C)c2c1`, which Potency is on record?
Answer: inactive

Question: With `COC(=O)[C@@]12OC[C@]34[C@H]([C@@H](O)[C@@H]1O)[C@@]1(C)C(=O)C(O[C@@H]5OC(CO)[C@@H](O)[C@@H](O)[C@@H]5O)=C[C@@H](C)[C@@H]1C[C@H]3OC(=O)[C@H](OC(=O)/C=C(\C)C(C)(C)OC(C)=O)[C@@H]24` (some centres not stated) as the molecule, how does the Potency read?
Answer: inconclusive: 12.6 µM [inhibitor, single point]

Question: Which Potency does the source give for `CCCNC(=O)CCn1cc(-c2ccc(OC)cc2)nc1-c1ccncc1` here?
Answer: inconclusive: 3.16 µM [inhibitor, partial curve, poor fit]

Question: For `CC(Sc1ccc2ccccc2c1)C(=O)NC(N)=O` (configuration not stated), which Potency is on record?
Answer: inactive

Question: For `Cc1cccc(CS(=O)(=O)c2ncc(Cl)c(C(=O)Nc3ccc(F)cc3)n2)c1`, which Potency is on record?
Answer: inconclusive: 1.41 µM [inhibitor, full curve]

Question: With `CN1C/C(=C\c2ccc(N3CCOCC3)cc2)C(=O)/C(=C/c2ccc(N3CCOCC3)cc2)C1` as the molecule, how does the Potency read?
Answer: inactive

Question: With `CCOC(=O)Cc1csc(NC(=S)NC(=O)c2ccc(C)cc2)n1` as the molecule, how does the Potency read?
Answer: inconclusive: 5.62 µM [inhibitor, partial curve, poor fit]

Question: Which Potency does the source give for `O=C(NCCc1csc(-c2cccnc2)n1)c1ccc(Cl)cc1` here?
Answer: inconclusive: 8.91 µM [inhibitor, single point]

Question: Which Potency does the source give for `O=C(Nc1ccccn1)c1cc2ccccc2o1` here?
Answer: inconclusive: 1.26 µM [inhibitor, full curve]

Question: Which Potency does the source give for `S=C(NCCN1CCOCC1)N/N=C/c1c2ccccc2cc2ccccc12` here?
Answer: inactive

Question: Which Potency does the source give for `O=C(Nc1ccc(O)cc1)c1ccc(NC(=O)C2CCCO2)cc1` (configuration not stated) here?
Answer: inconclusive: 8.91 µM [inhibitor, partial curve, poor fit]

Question: Which Potency does the source give for `O=C(Nc1cc(S(=O)(=O)Nc2ccc(Cl)cc2)ccc1O)c1ccc(S(=O)(=O)N2CCCCCC2)cc1` here?
Answer: inactive

Question: With `COc1nc(N)nc(NC(=O)c2cccs2)c1N=O` as the molecule, how does the Potency read?
Answer: inactive

Question: With `C=CCN1C(=O)c2ccc(C(=O)OCC(=O)Nc3ccc(S(N)(=O)=O)cc3)cc2C1=O` as the molecule, how does the Potency read?
Answer: inactive

Question: Which Potency does the source give for `CCC1=Nc2cc(C(=O)NCCCOC)ccc2Sc2ccccc21` here?
Answer: inactive

Question: Which Potency does the source give for `COc1ccc(-n2ncc3c(N(C)C4CCCCC4)ncnc32)cc1` here?
Answer: inconclusive: 1.12 µM [inhibitor, full curve, poor fit]

Question: With `CCN1CCc2nc(N)sc2C1` as the molecule, how does the Potency read?
Answer: inactive

Question: With `Cc1ccc(NC2(c3nnnn3-c3c(C)cccc3C)CCCCC2)cc1` as the molecule, how does the Potency read?
Answer: inconclusive: 12.6 µM [inhibitor, single point]

Question: With `COC(=O)c1sc(S(=O)(=O)Nc2ccc(C)cc2)c(C(=O)OC)c1C` as the molecule, how does the Potency read?
Answer: inactive

Question: For `Oc1ccc(Nc2ncnc3c2oc2ccccc23)cc1`, which Potency is on record?
Answer: inconclusive: 3.16 µM [inhibitor, single point]

Question: Which Potency does the source give for `O=C1c2ccccc2-c2nc3ccccc3cc21` here?
Answer: inactive

Question: With `Cc1cc(NC(=O)c2cn(C3CCCCC3)c(=O)c3c2c2ccccc2n3C)no1` as the molecule, how does the Potency read?
Answer: inconclusive: 28.2 µM [inhibitor, single point]

Question: For `COc1cccc2sc3cc(C#CC4(O)CCCCC4)ccc3c(=O)c12`, which Potency is on record?
Answer: inconclusive: 12.6 µM [inhibitor, single point]

Question: Which Potency does the source give for `Cc1ccc(S(=O)(=O)N(C)C[C@@H]2Oc3ccc(NC(=O)CCC(F)(F)F)cc3CC(=O)N([C@@H](C)CO)C[C@@H]2C)cc1` here?
Answer: inconclusive: 12.6 µM [inhibitor, single point]

Question: For `O=C(/C=C/c1cccs1)N1CCC2(CC1)Oc1ccc(Cl)cc1C(=O)C21CC(c2cccnc2)=NO1` (configuration not stated), which Potency is on record?
Answer: inconclusive: 12.6 µM [inhibitor, single point]

Question: For `Fc1cccc(Nc2ncnc3[nH]ncc23)c1`, which Potency is on record?
Answer: inconclusive: 5.62 µM [inhibitor, partial curve, poor fit]

Question: Which Potency does the source give for `CCCCCCCCCCOC(=O)C[N+](C)(C)C/C=C(/C)Cl` here?
Answer: inconclusive: 5.01 µM [inhibitor, partial curve, poor fit]

Question: Which Potency does the source give for `O=C(Nc1ccc(N2CCOCC2)c(Cl)c1)c1ccc(-n2cnnc2)cc1Cl` here?
Answer: inconclusive: 1.78 µM [inhibitor, full curve, poor fit]

Question: Which Potency does the source give for `CSc1cccc(NC(=O)NCc2cccc(CNC(=O)Nc3cccc(SC)c3)c2)c1` here?
Answer: inconclusive: 11.2 µM [inhibitor, single point]

Question: For `COC(=O)[C@@]1(Cc2ccccc2)[C@H]2C(=O)N(C)C(=O)[C@H]2[C@H]2CN=C(SCC(=O)c3ccccc3)N21`, which Potency is on record?
Answer: inconclusive: 10 µM [inhibitor, single point]

Question: Which Potency does the source give for `O=c1[nH]c(O)c(/C=C2\C=Nc3ccccc32)[nH]1` here?
Answer: inconclusive: 1.58 µM [inhibitor, full curve]

Question: For `COc1ccc(-c2nc(C#N)c(N3CCC(C)CC3)o2)cc1`, which Potency is on record?
Answer: inactive

Question: Which Potency does the source give for `Cc1cc(C)n(-c2ccc(C(=O)Nc3cccnc3)cc2)n1` here?
Answer: inconclusive: 3.55 µM [inhibitor, partial curve, poor fit]

Question: For `O=C1c2ccccc2NC(c2cccc(O)c2)N1Cc1ccco1` (configuration not stated), which Potency is on record?
Answer: inactive

Question: Which Potency does the source give for `COc1cc(C2NC(=O)NC(c3ccccc3)=C2C(C)=O)cc([N+](=O)[O-])c1O` (configuration not stated) here?
Answer: inconclusive: 3.16 µM [inhibitor, single point]

Question: With `O=C(N/C=C/c1ccccc1)c1ccccc1` as the molecule, how does the Potency read?
Answer: inconclusive: 28.2 µM [inhibitor, single point]

Question: With `O=S(=O)(CCSc1ccccn1)c1nc2ccccc2s1` as the molecule, how does the Potency read?
Answer: inconclusive: 2 µM [inhibitor, partial curve, poor fit]

Question: Which Potency does the source give for `CC1=NN(C(=O)c2csc(C)c2)C(O)(C(F)(F)F)C1` (configuration not stated) here?
Answer: inactive

Question: With `c1ccc(-n2ncc3c(N4CCCCC4)ncnc32)cc1` as the molecule, how does the Potency read?
Answer: active: 1.58 µM

Question: For `Cc1ccsc1CN(C)CC(=O)Nc1cccc(S(=O)(=O)N(C)c2ccccc2)c1`, which Potency is on record?
Answer: inconclusive: 12.6 µM [inhibitor, single point]

Question: With `CN(C)S(=O)(=O)c1ccc(N2CCCC2)c(C(=O)NNC(=O)c2ccc(F)cc2)c1` as the molecule, how does the Potency read?
Answer: inconclusive: 0.01 µM [inhibitor, full curve, poor fit]

Question: Which Potency does the source give for `O=[N+]([O-])c1cccnc1S(=O)(=O)c1ccccc1` here?
Answer: inactive

Question: Which Potency does the source give for `COc1ccc(CCNC(=O)c2nnn(CC(=O)Nc3ccc(C)cc3C)c2N)cc1OC` here?
Answer: inactive

Question: With `O=c1[nH]c(NCCO)nc2c1C1(CCCC1)Cc1ccccc1-2` as the molecule, how does the Potency read?
Answer: inactive

Question: Which Potency does the source give for `CCn1c2ccccc2c2cc(CNCCCN3CCOCC3)ccc21` here?
Answer: inconclusive: 3.16 µM [inhibitor, partial curve, poor fit]

Question: Which Potency does the source give for `COc1ccc(OC)c(-c2csc(NC(=O)C3CSC4(C)CCC(=O)N34)n2)c1` (configuration not stated) here?
Answer: inconclusive: 28.2 µM [inhibitor, single point]

Question: For `Cc1ccc(NC(=S)N2CCC(C(=O)c3ccc(F)cc3)CC2)cc1C`, which Potency is on record?
Answer: inactive

Question: For `CCNC(=O)Nc1cc(S(=O)(=O)Nc2ccc(OC)cc2)ccc1N1CCOCC1`, which Potency is on record?
Answer: inconclusive: 3.16 µM [inhibitor, partial curve, poor fit]

Question: Which Potency does the source give for `CC(C)CC(=O)Nc1nnc(S(=O)(=O)Nc2ccccc2)s1` here?
Answer: inactive

Question: For `CCOC(=O)c1cccc(Nc2ncnc3ccc(C)cc23)c1`, which Potency is on record?
Answer: inactive

Question: With `Cc1c(OCc2ccc(C(=O)O)cc2)ccc2c(-c3ccccc3)cc(=O)oc12` as the molecule, how does the Potency read?
Answer: inconclusive: 1.41 µM [inhibitor, partial curve, poor fit]

Question: For `COc1ccc(OC)c(-c2nc(C(=O)NC3CCN(Cc4ccccc4)CC3)cc3c2[nH]c2ccccc23)c1`, which Potency is on record?
Answer: inactive

Question: For `CCOC(=O)c1sc(=S)n(C)c1NC(=O)c1ccc(F)cc1`, which Potency is on record?
Answer: inactive

Question: With `CC1CC(C)CN(C(=O)c2ccc3c(c2)N(Cc2ccccc2)CCS3)C1` (configuration not stated) as the molecule, how does the Potency read?
Answer: inconclusive: 31.6 µM [inhibitor, single point]

Question: With `O=C(/C=C/c1ccco1)Nc1nc(-c2ccc(F)c(F)c2)cs1` as the molecule, how does the Potency read?
Answer: inconclusive: 2.24 µM [inhibitor, partial curve, poor fit]

Question: For `O=Cc1cn(CCOc2ccccc2F)c2ccccc12`, which Potency is on record?
Answer: inconclusive: 15.8 µM [inhibitor, partial curve, poor fit]

Question: For `C=CCn1c(N/N=C/c2ccc(O)cc2)nc2ccccc2c1=O`, which Potency is on record?
Answer: inconclusive: 7.94 µM [inhibitor, partial curve, poor fit]

Question: With `O=C(c1cc2cc(Cl)ccc2[nH]1)N1CCc2ccccc2C1` as the molecule, how does the Potency read?
Answer: inconclusive: 12.6 µM [inhibitor, single point]

— PubChem BioAssay AID540303 (National Center for Advancing Translational Sciences (NCATS), 2011)
